What all share (experiment): two-hybrid; Mammalian Membrane Two-Hybrid (MaMTH, split ubiquitin); TLR2-Cub-TF bait and Nub preys co-transfected in HEK293T 5xGAL4UAS-luciferase reporter cells; untreated, PAM, or P. gingivalis MOI 10 for 8 h; luciferase read-out
For experiment [1], the target named is TLR2-Cub-TF bait W684A (UniProt O60603).
Experiment [2] addresses TLR2-Cub-TF bait W684A/F719A double mutant (UniProt O60603).
In experiment [3] the target is TLR2-Cub-TF bait F719A (UniProt O60603).

The chains behind the UniProt entries cited, without tags or fusion partners. Where a name states a change or a piece, a line headed by the entry shows the natural chain unless it says otherwise. A line that says so, or that is headed by a name, gives the form on record, which may keep a tag or linker.
TLR2-Cub-TF bait W684A (O60603, form named): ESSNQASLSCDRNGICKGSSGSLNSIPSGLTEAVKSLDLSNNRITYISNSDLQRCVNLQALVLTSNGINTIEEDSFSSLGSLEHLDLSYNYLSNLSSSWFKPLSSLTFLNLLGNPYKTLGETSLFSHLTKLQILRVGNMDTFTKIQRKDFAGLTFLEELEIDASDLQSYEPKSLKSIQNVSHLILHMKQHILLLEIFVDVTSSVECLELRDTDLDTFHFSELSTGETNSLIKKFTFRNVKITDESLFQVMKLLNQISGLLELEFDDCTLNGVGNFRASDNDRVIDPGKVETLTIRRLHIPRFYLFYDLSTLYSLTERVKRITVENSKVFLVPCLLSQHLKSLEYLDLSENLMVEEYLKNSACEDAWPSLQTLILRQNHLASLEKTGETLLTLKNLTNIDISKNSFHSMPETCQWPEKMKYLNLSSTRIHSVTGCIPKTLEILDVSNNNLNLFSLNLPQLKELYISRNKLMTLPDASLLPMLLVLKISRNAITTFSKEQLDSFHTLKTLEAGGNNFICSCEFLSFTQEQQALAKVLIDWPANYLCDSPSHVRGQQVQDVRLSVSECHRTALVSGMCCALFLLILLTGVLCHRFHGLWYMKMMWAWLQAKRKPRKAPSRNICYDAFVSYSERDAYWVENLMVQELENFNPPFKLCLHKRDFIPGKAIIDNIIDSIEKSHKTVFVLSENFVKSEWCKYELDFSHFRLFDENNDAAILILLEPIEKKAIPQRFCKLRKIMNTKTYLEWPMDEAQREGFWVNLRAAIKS
TLR2-Cub-TF bait W684A/F719A double mutant (O60603, form named): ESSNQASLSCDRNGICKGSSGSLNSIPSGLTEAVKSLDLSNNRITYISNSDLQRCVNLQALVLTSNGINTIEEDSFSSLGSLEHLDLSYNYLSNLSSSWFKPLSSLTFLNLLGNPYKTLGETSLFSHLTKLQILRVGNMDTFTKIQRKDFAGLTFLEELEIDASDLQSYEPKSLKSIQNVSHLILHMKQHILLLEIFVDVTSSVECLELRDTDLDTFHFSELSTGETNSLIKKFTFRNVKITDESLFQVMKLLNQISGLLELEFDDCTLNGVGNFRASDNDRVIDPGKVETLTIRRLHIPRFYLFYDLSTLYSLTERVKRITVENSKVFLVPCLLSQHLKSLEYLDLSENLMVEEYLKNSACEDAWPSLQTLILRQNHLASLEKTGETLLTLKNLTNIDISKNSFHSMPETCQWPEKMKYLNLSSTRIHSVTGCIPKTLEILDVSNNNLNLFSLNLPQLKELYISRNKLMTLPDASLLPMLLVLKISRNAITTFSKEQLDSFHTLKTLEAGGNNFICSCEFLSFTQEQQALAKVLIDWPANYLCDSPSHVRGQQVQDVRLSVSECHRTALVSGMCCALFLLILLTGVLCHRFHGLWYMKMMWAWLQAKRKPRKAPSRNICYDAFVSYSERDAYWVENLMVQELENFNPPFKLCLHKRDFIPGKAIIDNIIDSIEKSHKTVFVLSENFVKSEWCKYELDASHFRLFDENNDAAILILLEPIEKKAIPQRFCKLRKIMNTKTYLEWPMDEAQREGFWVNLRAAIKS
TLR2-Cub-TF bait F719A (O60603, form named): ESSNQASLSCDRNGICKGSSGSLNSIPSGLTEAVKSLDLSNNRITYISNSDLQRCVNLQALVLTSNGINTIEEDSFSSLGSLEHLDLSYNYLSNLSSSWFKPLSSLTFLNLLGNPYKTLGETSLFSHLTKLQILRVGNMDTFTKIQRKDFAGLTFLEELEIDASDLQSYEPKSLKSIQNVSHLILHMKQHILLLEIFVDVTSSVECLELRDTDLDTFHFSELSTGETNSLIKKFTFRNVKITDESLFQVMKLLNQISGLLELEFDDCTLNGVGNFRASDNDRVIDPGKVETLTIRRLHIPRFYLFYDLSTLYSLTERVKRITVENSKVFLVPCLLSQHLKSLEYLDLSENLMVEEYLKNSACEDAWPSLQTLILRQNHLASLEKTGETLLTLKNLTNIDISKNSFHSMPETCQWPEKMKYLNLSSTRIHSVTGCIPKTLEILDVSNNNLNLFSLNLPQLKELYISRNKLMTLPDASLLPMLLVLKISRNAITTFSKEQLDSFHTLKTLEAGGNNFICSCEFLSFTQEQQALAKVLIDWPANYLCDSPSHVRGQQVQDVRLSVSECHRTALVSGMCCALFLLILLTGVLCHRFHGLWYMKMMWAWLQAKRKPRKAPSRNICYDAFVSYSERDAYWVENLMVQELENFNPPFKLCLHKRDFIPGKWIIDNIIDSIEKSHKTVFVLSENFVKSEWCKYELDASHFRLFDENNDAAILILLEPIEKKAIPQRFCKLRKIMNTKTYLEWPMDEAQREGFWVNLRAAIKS

These are yes or no findings as the source states them, for the method shown. For part of these data: Binding can be weak; no strength is given.

As for VCL-Nub prey (from UniProt P18206-2), the binding entry in experiment [1] is given as “binds”; in experiment [2], “no binding”; in experiment [3], “binds”.

Source of the values: article PMC10112799.
